Results reported in patent publication US20170306050A1.
Results are given in words; binding and its absence hold for the method and conditions named. Some binding calls cover weakened binding; strength is not graded here.

Sequences of proteins named here, by UniProt entry; tags and fusion partners are left off. A change or cut given only in a name is not applied to a line headed by its entry.
UniProt P14780: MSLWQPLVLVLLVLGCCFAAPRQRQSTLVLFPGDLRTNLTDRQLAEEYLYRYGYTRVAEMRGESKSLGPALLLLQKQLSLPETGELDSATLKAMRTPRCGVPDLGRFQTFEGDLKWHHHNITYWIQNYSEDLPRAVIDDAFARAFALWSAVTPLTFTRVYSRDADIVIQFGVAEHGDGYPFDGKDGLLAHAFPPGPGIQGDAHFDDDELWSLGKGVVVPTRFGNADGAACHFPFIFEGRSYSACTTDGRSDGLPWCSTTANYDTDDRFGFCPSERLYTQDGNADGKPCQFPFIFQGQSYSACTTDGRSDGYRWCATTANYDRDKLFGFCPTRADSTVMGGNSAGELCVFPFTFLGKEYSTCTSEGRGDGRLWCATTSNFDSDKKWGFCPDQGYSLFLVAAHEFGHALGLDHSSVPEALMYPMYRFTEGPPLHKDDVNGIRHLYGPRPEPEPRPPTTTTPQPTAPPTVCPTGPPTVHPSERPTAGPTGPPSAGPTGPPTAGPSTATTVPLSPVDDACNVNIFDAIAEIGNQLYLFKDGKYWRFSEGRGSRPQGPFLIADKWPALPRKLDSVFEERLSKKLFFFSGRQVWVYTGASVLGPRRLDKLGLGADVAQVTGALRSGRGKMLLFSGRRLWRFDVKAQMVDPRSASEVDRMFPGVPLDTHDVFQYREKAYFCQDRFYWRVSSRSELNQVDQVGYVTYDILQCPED

How the values were obtained:
[1] = biological target: T1, total fragment of cleavage site …; assay: peptide ELISA (FIG. 1C)
T1 sequence (peptide): VPDLGRFQTFEGD

[2] = biological target: T2, fragment of the neo-epitope QTFEGD; assay: peptide ELISA (FIG. 1C)
T2 sequence (peptide): QTFEGD

[3] = biological target: T3, neo-epitope peptide FQTFEGD; assay: peptide ELISA (FIG. 1C)
T3 sequence (peptide): FQTFEGD

[4] = biological target: active MMP9 (human) (UniProt P14780); assay: Li-Cor Western blot of colon lysates from UC and Crohn's disease patients
[5] = biological target: active MMP9 (human) (UniProt P14780); assay: Western blot
[6] = biological target: active MMP9 with an added N-terminal aspartic acid (human) (UniProt P14780); assay: immunohistochemistry (FIG. 1B)

Measured: binding

B1: Active AB (antibody, V domains shown)
VH: QSVEESGGRLVTPGTPLTLTCTASGFTISSYHMTWVRQAPMKGLEWIGTISSSGSTYYASWAKGRFTISKTSSTTVDLKITSPATEDTATYFCARSVPGDSSGEIWGRGTLVTVSS
VL: AQVLTQTASPVSAAVGGTVTINCQSSQSVYNKNWLAWYQQKPGQPPKRLIYSASTLDSGVSSRFKGSGSGTQFTLTISGVQCDDAATYYCQGEFSCSRGDCSAFGGGTEVVVQG
binds: [1] | [2] | [3] | [4] | [5] | [6]
